Values of other authors in patent US20050255049A1, “Formoterol and mometasone aerosol formulations” (priority 2002, published 2005).
Where a name gives a salt, the structure may show the parent alone.

Details: stated in the background

In the case of `COc1ccc(CC(C)NCC(O)c2ccc(O)c(NC=O)c2)cc1` (stereo not shown) [formoterol fumarate, N-[2-hydroxy-5-(1-hydroxy-2-((2-(4-methoxyphenyl)-1-methylethyl)amino)ethyl)phenyl]formamide], the density is listed as 1.3 g cm^−3.
